Test results: patent US10450260B2, “NO- and H2S-releasing compounds” (RESEARCH FOUNDATION OF THE CITY UNIVERSITY OF NEW YORK, priority 2011, dated 2019)
Marks after values point to notes of the source that are not given here.

Columns and labels:
[1] = H2S release, polarographic sensor, homogenized mouse liver; conditions: 100 μM donor, real-time polarographic H2S sensor
[2] = H2S release, polarographic sensor, tissue culture media; conditions: real-time polarographic H2S sensor
[3] = test system: HT-29 cells; experiment: NO release in culture medium of treated cells; format: cell-based, human; conditions: NOSH-1 50 nM

Row | SMILES | H2S release, Homogenized mouse liver [1] | H2S release, Tissue culture media [2] | NO release (total NO3−/NO2−) in culture medium ([3]; 24 hours) [µM] | concentration of NO in the medium compared to untreated cells ([3]; after 24 hours) [fold] | NO release (total NO3−/NO2−) in culture medium ([3]; first 15 minutes, base line 4.8 μM) [µM] | NO release (total NO3−/NO2−) in culture medium ([3]; peak at 6 hours) [µM]
1 | CC(=O)Oc1ccccc1C(=O)Oc1ccc(-c2cc(=S)ss2)cc1 [HS-ASA, 4-(5-thioxo-5H-1,2-dithiol-3-yl)-phenyl 2-acetoxybenzoate, reference compound] | 146 ± 15^a,c μmol/min/g wet weight | 3.5 ± 1.1^c μmol/min | – | – | – | –
2 | O=C(CCCO[N+](=O)[O-])Oc1ccccc1C(=O)Oc1ccc(-c2cc(=S)ss2)cc1 [NOSH-1, 4-(3-thioxo-3H-1,2-dithiol-5-yl)phenyl 2-((4-(nitrooxy)butanoyl)oxy)benzoate] | 57.3 ± 6.4^a,b μmol/min/g wet weight | 8.7 ± 4.4^b μmol/min | 29.1 | 6 | 13.3 | 40.1
